In paper doi:10.1101/133074:
Results are given in words; binding and its absence hold for the method and conditions named. In cells and extracts the contact can be indirect. Some binding calls cover weakened binding; strength is not graded here.

Chains of the proteins cited; added tags and fusions are not shown.
UniProt P32854: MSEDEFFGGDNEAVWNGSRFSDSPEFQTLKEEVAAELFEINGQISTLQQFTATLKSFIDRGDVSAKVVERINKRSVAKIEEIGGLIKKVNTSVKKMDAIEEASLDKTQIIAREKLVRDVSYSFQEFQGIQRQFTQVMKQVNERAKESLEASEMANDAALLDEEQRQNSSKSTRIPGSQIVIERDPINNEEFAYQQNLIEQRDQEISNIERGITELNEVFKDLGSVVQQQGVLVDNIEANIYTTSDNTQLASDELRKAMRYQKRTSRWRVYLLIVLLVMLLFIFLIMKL
UniProt P33328: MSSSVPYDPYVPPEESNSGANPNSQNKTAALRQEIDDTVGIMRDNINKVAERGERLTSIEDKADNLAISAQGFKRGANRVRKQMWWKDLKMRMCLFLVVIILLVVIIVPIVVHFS
UniProt P20795: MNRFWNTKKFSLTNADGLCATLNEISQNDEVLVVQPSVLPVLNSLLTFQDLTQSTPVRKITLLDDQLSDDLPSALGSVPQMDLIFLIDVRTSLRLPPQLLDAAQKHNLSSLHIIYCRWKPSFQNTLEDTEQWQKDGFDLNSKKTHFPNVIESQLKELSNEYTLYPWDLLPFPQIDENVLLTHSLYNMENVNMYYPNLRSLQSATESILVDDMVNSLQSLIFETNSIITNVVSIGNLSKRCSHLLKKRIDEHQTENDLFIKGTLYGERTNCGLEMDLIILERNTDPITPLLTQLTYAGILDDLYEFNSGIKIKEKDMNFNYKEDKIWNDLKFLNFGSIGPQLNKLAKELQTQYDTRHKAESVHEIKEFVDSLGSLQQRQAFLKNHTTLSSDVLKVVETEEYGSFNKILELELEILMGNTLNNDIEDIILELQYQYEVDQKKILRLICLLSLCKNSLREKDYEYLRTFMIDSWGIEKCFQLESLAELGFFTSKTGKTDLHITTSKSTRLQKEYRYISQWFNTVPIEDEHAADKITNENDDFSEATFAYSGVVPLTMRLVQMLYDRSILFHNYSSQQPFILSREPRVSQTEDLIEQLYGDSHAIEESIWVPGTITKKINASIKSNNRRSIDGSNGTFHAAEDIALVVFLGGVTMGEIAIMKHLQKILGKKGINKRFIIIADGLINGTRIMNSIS

T1: CBP::Vam3 (S. cerevisiae) (UniProt Q12241)
T1 sequence: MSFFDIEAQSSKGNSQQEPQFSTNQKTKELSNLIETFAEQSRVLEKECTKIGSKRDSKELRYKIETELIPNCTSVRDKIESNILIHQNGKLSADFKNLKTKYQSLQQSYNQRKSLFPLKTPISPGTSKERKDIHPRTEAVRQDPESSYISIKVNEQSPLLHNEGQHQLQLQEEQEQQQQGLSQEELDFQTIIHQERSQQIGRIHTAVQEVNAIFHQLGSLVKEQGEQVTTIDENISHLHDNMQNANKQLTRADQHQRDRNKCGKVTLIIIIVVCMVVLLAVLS


Columns and labels:
[1] = target: T1, CBP::Vam3 (S. cerevisiae); assay: pull-down
[2] = target: Pep12 fused to calmodulin-binding protein (CBP::Pep12) (S. cerevisiae) (UniProt P32854); assay: pull-down

Molecule	binding [1]	binding [2]
Snc2 (from UniProt P33328 1-115)	no binding	no binding
Vps33 (from UniProt P20795 1-691)	binds	binds
Nyv1 (protein, UniProt Q12255 1-253) MKRFNVSYVEVIKNGETISSCFQPFQKNENYGTITSANEQITPVIFHNLIMDMVLPKVVPIKGNKVTKMSMNLIDGFDCFYSTDDHDPKTVYVCFTLVDMPKILPIRILSGLQEYESNATNELLSSHVGQILDSFHEELVEYRNQTLNSSGNGQSSNGNGQNTISDIGDATEDQIKDVIQIMNDNIDKFLERQERVSLLVDKTSQLNSSSNKFRRKAVNIKEIMWWQKVKNITLLTFTIILFVSAAFMFFYLW	binds	binds
